Our source for the binding values is publication PMC3827329.

Protein sequences, listed by entry. Tags and fused reporters are not part of them. Lines headed by an entry give the natural chain unless they say otherwise; changes in a name come on top.
UniProt P67775: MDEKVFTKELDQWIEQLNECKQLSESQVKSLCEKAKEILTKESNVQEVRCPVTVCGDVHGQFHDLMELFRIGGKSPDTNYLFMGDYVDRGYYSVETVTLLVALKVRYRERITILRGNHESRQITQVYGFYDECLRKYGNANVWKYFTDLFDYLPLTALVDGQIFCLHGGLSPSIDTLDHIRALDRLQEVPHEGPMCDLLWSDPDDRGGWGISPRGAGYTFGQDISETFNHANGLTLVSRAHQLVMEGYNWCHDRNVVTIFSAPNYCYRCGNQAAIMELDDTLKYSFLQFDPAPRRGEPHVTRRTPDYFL

Results are given in words; binding and its absence hold for the method and conditions named. In cells and extracts the contact can be indirect. Binding calls can cover weak binding; strength is not graded here.

In this experiment the target is GST-tagged catalytic subunit of PP2A (UniProt P67775). The experiment is described as follows: pull-down; GST-tagged bait and His-Xpress-KCTD20 coexpressed in COS7 cells; lysates (20 mM HEPES pH 7.5, 150 mM NaCl, 1 mM DTT, 1 mM EDTA, 0.5% Triton X-100) precleared with sepharose 4B, pulled down with glutathione beads, washed five times; immunoblot with anti-Xpress and anti-GST. (Immunoblotting shows a protein as a band on a membrane.)

Consider “His-Xpress-KCTD20 (potassium channel tetramerization protein domain containing 20) (from UniProt Q7Z5Y7-1 1-419)”, for which the binding result was “binds”.
